Test results reported in the supplement of paper PMC10849652.
The other results are listed elsewhere or left out. Residues, ends and D or L forms follow the SMILES beside them. *: point of attachment. Cbz = O=C(OCc1ccccc1)*

Protein sequences, listed by entry. Tags and fused reporters are not part of them. Lines headed by an entry give the natural chain unless they say otherwise; changes in a name come on top.
UniProt P55145: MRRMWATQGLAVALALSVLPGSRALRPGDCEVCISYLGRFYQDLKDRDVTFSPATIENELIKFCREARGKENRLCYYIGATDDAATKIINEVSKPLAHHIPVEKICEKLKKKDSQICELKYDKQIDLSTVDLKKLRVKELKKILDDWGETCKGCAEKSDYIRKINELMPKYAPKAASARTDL
UniProt P43366: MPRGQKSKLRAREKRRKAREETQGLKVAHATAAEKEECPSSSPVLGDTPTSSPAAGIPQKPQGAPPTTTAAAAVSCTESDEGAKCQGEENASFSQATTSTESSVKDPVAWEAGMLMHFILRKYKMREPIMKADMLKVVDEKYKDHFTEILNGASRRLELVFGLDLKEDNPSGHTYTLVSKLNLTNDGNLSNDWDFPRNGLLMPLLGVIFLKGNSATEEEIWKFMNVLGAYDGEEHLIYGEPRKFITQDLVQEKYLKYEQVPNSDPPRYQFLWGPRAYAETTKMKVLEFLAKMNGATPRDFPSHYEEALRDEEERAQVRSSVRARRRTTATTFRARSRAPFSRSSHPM
UniProt P28482, whole entry, looked up: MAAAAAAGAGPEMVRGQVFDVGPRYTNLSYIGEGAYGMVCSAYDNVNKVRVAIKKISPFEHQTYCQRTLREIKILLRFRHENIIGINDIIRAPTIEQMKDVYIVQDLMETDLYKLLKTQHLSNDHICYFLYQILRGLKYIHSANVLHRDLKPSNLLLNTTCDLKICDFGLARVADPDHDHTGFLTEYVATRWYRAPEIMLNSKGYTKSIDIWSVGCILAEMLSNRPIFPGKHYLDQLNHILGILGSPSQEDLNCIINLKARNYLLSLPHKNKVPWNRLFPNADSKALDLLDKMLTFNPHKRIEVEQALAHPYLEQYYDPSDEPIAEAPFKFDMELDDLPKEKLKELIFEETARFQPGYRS
UniProt Q16706: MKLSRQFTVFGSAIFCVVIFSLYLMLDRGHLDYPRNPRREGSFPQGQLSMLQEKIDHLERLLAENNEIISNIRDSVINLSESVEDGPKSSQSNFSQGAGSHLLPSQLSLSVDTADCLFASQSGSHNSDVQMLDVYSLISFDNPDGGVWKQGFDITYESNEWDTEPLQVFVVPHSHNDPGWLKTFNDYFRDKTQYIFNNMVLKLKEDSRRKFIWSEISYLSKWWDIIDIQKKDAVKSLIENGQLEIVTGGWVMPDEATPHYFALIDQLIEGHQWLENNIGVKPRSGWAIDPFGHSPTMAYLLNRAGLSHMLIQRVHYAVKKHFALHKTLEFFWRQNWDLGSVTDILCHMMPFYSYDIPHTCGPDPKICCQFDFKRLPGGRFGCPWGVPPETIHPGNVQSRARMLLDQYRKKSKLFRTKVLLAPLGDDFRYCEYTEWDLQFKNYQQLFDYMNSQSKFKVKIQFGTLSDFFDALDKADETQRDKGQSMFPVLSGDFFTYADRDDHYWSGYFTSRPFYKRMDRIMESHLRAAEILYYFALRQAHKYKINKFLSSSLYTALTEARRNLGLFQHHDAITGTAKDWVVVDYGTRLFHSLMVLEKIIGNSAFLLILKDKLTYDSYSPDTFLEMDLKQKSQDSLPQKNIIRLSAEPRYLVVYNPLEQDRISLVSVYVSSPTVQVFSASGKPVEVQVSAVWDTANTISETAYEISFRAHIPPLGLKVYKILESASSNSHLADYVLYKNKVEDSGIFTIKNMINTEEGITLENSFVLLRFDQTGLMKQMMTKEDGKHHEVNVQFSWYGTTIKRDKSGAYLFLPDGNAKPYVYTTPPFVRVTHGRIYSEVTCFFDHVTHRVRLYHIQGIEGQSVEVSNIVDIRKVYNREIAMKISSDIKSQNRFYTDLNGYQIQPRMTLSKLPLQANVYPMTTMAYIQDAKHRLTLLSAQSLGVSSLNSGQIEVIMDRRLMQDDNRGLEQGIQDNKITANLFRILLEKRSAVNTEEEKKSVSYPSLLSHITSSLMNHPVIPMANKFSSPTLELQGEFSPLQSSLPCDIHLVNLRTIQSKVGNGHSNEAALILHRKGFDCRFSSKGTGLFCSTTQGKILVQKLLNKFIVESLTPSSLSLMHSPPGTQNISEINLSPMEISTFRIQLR
UniProt Q5VWZ2: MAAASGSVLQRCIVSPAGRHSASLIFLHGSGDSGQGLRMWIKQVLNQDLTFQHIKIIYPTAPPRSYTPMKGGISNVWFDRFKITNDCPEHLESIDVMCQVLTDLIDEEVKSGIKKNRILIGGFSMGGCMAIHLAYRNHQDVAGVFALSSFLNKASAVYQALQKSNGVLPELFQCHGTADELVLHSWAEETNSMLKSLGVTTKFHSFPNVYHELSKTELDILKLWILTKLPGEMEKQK
UniProt O60337: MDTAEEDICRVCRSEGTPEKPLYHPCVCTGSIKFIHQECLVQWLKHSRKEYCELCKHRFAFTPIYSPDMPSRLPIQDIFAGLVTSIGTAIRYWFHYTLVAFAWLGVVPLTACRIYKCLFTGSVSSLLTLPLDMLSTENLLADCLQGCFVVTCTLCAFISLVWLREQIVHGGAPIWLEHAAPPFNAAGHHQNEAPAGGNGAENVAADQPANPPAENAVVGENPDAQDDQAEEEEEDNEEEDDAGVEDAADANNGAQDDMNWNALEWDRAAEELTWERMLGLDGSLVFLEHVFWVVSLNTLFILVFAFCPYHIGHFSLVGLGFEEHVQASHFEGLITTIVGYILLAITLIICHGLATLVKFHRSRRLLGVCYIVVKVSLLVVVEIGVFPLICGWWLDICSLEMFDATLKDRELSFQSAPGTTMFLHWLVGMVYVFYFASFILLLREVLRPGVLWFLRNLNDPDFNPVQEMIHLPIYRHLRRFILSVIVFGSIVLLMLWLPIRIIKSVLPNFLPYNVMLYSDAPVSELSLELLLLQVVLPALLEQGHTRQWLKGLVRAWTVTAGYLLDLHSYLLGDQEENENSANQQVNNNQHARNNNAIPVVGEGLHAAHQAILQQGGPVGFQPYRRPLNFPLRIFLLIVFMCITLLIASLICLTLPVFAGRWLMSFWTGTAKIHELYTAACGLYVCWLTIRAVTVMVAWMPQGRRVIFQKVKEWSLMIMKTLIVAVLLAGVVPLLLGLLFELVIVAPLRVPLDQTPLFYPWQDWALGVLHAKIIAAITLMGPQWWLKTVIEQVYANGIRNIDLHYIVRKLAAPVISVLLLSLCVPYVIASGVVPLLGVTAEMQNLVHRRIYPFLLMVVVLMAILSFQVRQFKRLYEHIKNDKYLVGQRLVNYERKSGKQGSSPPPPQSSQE
UniProt Q8IV50: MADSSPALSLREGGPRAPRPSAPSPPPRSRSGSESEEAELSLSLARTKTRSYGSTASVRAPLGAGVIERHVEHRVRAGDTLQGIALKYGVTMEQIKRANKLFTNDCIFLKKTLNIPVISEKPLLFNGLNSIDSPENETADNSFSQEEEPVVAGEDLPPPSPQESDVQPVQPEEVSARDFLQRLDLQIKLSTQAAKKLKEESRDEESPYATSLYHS
UniProt P20645: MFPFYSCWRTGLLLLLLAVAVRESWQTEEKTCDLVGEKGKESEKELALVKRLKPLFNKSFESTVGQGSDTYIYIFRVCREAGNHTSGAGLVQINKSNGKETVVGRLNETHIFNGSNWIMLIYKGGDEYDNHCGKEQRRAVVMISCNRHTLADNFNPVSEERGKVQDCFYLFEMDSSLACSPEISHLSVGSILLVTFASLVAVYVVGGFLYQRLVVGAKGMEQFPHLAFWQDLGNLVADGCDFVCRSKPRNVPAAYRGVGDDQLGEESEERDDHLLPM
UniProt Q9H0U3: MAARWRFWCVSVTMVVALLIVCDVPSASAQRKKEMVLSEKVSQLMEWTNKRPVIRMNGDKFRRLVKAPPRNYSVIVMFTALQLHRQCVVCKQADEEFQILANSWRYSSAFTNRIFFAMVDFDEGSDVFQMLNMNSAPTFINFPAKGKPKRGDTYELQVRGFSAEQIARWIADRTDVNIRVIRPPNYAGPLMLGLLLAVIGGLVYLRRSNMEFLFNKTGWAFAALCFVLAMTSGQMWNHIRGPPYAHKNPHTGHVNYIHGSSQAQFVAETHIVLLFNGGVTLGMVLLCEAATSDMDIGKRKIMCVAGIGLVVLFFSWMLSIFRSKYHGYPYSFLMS
UniProt P62312: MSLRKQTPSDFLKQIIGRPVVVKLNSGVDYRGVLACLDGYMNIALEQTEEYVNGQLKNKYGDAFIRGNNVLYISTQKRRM
UniProt Q9UK45: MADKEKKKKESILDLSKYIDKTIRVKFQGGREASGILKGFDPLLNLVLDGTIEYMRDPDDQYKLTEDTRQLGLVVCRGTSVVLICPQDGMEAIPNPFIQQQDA
UniProt Q9NQ48: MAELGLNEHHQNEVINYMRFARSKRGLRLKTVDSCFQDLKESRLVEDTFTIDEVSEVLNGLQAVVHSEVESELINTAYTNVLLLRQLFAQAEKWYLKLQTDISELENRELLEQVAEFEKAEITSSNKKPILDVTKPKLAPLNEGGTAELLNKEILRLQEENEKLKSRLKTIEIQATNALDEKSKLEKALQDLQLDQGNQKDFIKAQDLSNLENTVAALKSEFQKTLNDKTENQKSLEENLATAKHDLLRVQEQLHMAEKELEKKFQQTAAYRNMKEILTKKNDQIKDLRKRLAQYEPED
UniProt O15116: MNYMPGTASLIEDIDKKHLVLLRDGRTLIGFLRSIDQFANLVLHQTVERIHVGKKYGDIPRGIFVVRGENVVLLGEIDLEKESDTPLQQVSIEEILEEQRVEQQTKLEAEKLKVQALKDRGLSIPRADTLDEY
UniProt Q9Y608: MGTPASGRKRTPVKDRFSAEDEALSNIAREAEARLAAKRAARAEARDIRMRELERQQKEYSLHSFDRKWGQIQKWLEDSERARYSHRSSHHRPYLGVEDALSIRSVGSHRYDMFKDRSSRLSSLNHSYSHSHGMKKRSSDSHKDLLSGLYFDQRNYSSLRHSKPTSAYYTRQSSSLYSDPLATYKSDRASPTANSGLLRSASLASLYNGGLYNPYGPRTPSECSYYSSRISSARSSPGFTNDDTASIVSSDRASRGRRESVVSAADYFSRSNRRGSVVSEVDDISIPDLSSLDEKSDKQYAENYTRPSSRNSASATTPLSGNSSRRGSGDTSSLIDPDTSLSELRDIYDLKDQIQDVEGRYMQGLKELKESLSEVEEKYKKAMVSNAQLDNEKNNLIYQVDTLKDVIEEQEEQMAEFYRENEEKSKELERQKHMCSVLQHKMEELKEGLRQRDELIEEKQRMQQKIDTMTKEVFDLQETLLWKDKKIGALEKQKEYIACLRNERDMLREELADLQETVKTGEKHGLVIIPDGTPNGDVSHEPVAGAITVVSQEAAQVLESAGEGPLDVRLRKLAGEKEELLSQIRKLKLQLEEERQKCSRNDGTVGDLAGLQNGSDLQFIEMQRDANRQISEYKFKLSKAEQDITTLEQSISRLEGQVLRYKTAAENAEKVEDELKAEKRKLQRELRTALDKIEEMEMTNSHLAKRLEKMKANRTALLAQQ
UniProt O75608: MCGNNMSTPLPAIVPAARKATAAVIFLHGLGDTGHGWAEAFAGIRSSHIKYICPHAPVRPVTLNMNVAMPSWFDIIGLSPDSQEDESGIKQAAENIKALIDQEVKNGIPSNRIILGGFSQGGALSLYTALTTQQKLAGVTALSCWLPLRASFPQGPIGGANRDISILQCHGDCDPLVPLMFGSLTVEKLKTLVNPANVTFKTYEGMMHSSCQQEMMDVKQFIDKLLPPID

Experiments:
Assay in all cases: log2 fold change, soluble protein after heating vs DMSO (PISA); higher = thermal stabilisation; K562 cells, 10 uM, 30 min; active = over 0.2 and 3.5 SD of the protein, either way, in both replicates (recomputed)
IRAK-1-4 Inhibitor I = compound: C1COCCN1CCN2C3=CC=CC=C3N=C2NC(=O)C4=CC(=CC=C4)[N+](=O)[O-] [IRAK-1-4 Inhibitor I]
In short: (§1)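 Values are thermal stability changes relative to control samples and are taken from duplicates. They are stated as log2 fold changes. Before quantification by TMTpro 16plex LC-MS/MS with equalised channel sums, K562 cells at 2×10^6 cells/mL were treated with 10 μM compound for 30 min, heated in aliquots for 3 min across 48°C-58°C, pooled, extracted in PBS with 0.5% NP-40 at 4°C, and centrifuged at 21,000xg for 90 min to give the soluble supernatant.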

ibrutinib = compound: C=CC(=O)N1CCC[C@@H](n2nc(-c3ccc(Oc4ccccc4)cc3)c3c(N)ncnc32)C1 [ibrutinib]
In short: as §1

[1] = compound: CC(=O)c1cnc2ccc(-c3cc(Cl)c(O)c(Cl)c3)nc2c1N[C@H]1CC[C@H](CN(C)C)CC1
In short: as §1

ralimetinib = compound: CC(C)(C)Cn1c(N)nc2ccc(-c3[nH]c(C(C)(C)C)nc3-c3ccc(F)cc3)nc21 [ralimetinib]
In short: as §1

[2] = compound: CC(C)(O)CC(=O)NCCn1ccc2ncnc(Nc3ccc(Oc4cccc(C(F)(F)F)c4)c(Cl)c3)c21
In short: as §1

[3] = compound: CC(C)C1=C2N=C(C=C(N2N=C1)NCC3=CC=CC=C3)NCCCCCCN
In short: as §1

[4] = compound: CC(C)C[C@@H](C=O)NC(=O)[C@H](CC(C)C)NC(=O)[C@H](CC(C)C)NC(=O)OCc1ccccc1
In short: as §1

pinometostat = compound: CC(C)N(C[C@H]1O[C@@H](n2cnc3c(N)ncnc32)[C@H](O)[C@@H]1O)[C@H]1C[C@@H](CCc2nc3cc(C(C)(C)C)ccc3[nH]2)C1 [pinometostat]
In short: as §1

[5] = compound: CC1=C(C(CC(=O)N1)C2=CC=C(C=C2)C(F)(F)F)C(=O)NC3=C(C=C4C(=C3)C=NN4)F
In short: as §1

[6] = compound: CC1=C(C2=C(C=C1)C(=O)C3=CC=CC=C3N2CCCN)C
In short: as §1

[7] = compound: CC1=C(C=C(C=C1)NC(=O)C2=CC(=CC=C2)C(C)(C)C#N)NC3=CC4=C(C=C3)N=CN(C4=O)C
In short: as §1

[8] = compound: CC1=C(C=C(C=C1)NC(=O)C2=CC(=CC=C2)N(C)C)NC(=O)C3=CC=C(C=C3)O
In short: as §1

[9] = compound: CC1=CC=C(C=C1)SC2=C3C=C(SC3=CN=C2)C(=O)N
In short: as §1

[10] = compound: CC1=NC(=CC=C1)C2=C(N=C(N2)C(C)(C)C)C3=CC4=NC=CN=C4C=C3
In short: as §1

Nexturastat A = compound: CCCCN(Cc1ccc(C(=O)NO)cc1)C(=O)Nc1ccccc1 [Nexturastat A]
In short: as §1

vemurafenib = compound: CCCS(=O)(=O)Nc1ccc(F)c(C(=O)c2c[nH]c3ncc(-c4ccc(Cl)cc4)cc23)c1F [vemurafenib]
In short: as §1

[11] = compound: CCCS(=O)(=O)Nc1ccc(F)c(C(=O)c2c[nH]c3ncc(Cl)cc23)c1F
In short: as §1

[12] = compound: CCCc1cc(C)[nH]c(=O)c1CNC(=O)c1cc(-c2ccnc(N3CCN(C)CC3)c2)cc2c1cnn2C(C)C
In short: as §1

givinostat = compound: CCN(CC)Cc1ccc2cc(COC(=O)Nc3ccc(C(=O)NO)cc3)ccc2c1 [givinostat]
In short: as §1

barasertib = compound: CCN(CCCOc1ccc2c(Nc3cc(CC(=O)Nc4cccc(F)c4)[nH]n3)ncnc2c1)CCOP(=O)(O)O [barasertib]
In short: as §1

Measured: log2 fold change

MANF (UniProt P55145)
inactive: IRAK-1-4 Inhibitor I 0.023 | ibrutinib 0.007 | [1] 0.044 | ralimetinib -0.063 | [2] -0.025 | [3] 0.031 | [4] -0.015 | pinometostat -0.036 | [5] 0.042 | [6] -0.032 | [7] 0.057 | [8] -0.021 | [9] 0.098 | [10] 0.009 | Nexturastat A -0.11 | vemurafenib -0.021 | [11] 0.014 | [12] -0.082 | givinostat -0.032 | barasertib -0.024

MAGEB1 (UniProt P43366)
inactive: IRAK-1-4 Inhibitor I -0.182 | ibrutinib 0.104 | [1] 0.097 | ralimetinib 0.225 | [2] 0.04 | [3] -0.104 | [4] 0.118 | pinometostat 0.339 | [5] -0.009 | [6] -0.421 | [7] 0.042 | [8] 0.053 | [9] -0.056 | [10] -0.057 | Nexturastat A 0.369 | vemurafenib 0.008 | [11] -0.009 | [12] 0.151 | givinostat 0.07 | barasertib -0.125

MAPK1 (UniProt P28482)
inactive: IRAK-1-4 Inhibitor I 0.029 | ibrutinib -0.022 | [1] 0.009 | ralimetinib -0.035 | [2] -0.025 | [3] 0.015 | [4] -0.023 | pinometostat -0.029 | [5] 0.017 | [6] -0.028 | [7] -0.013 | [8] -0.027 | [9] 0.024 | [10] 0.034 | Nexturastat A -0.06 | vemurafenib 0.012 | [11] 0.002 | [12] -0.013 | givinostat -0.027 | barasertib 0.006

MAN2A1 (UniProt Q16706)
inactive: IRAK-1-4 Inhibitor I 0.018 | ibrutinib 0.012 | [1] -0.015 | ralimetinib -0.032 | [2] 0.056 | [3] 0.005 | [4] 0.002 | pinometostat -0.029 | [5] 0 | [6] -0.016 | [7] 0.006 | [8] 0.009 | [9] -0.034 | [10] -0.024 | Nexturastat A -0.035 | vemurafenib -0.01 | [11] -0.01 | [12] 0.001 | givinostat -0.024 | barasertib 0.009

LYPLAL1 (UniProt Q5VWZ2)
inactive: IRAK-1-4 Inhibitor I 0.051 | ibrutinib -0.025 | [1] -0.006 | ralimetinib 0.007 | [2] -0.052 | [3] -0.016 | [4] -0.038 | pinometostat -0.003 | [5] -0.011 | [6] 0.041 | [7] -0.007 | [8] -0.019 | [9] -0.016 | [10] 0.019 | Nexturastat A 0.003 | vemurafenib 0.013 | [11] -0.002 | [12] -0.014 | givinostat -0.006 | barasertib 0.023

MARCHF6 (UniProt O60337)
inactive: IRAK-1-4 Inhibitor I 0.043 | ibrutinib 0.054 | [1] -0.013 | ralimetinib 0.033 | [2] 0.044 | [3] -0.154 | [4] 0.166 | pinometostat 0.068 | [5] 0.071 | [6] -0.051 | [7] -0.167 | [8] 0.055 | [9] -0.009 | [10] -0.01 | Nexturastat A 0.014 | vemurafenib -0.019 | [11] 0.065 | [12] -0.076 | givinostat -0.135 | barasertib 0.061

LYSMD2 (UniProt Q8IV50)
inactive: IRAK-1-4 Inhibitor I 0.032 | ibrutinib -0.011 | [1] -0.086 | ralimetinib -0.048 | [2] 0.039 | [3] 0.042 | [4] 0.023 | pinometostat -0.045 | [5] 0.023 | [6] -0.035 | [7] -0.077 | [8] 0.006 | [9] -0.02 | [10] -0.02 | Nexturastat A -0.012 | vemurafenib -0.033 | [11] -0.027 | [12] -0.055 | givinostat -0.047 | barasertib 0.026

2 consecutive records from above, quoted:
MAN2A1 (UniProt Q16706)
inactive: IRAK-1-4 Inhibitor I 0.018 | ibrutinib 0.012 | [1] -0.015 | ralimetinib -0.032 | [2] 0.056 | [3] 0.005 | [4] 0.002 | pinometostat -0.029 | [5] 0 | [6] -0.016 | [7] 0.006 | [8] 0.009 | [9] -0.034 | [10] -0.024 | Nexturastat A -0.035 | vemurafenib -0.01 | [11] -0.01 | [12] 0.001 | givinostat -0.024 | barasertib 0.009

LYPLAL1 (UniProt Q5VWZ2)
inactive: IRAK-1-4 Inhibitor I 0.051 | ibrutinib -0.025 | [1] -0.006 | ralimetinib 0.007 | [2] -0.052 | [3] -0.016 | [4] -0.038 | pinometostat -0.003 | [5] -0.011 | [6] 0.041 | [7] -0.007 | [8] -0.019 | [9] -0.016 | [10] 0.019 | Nexturastat A 0.003 | vemurafenib 0.013 | [11] -0.002 | [12] -0.014 | givinostat -0.006 | barasertib 0.023

(continued)

M6PR (UniProt P20645)
inactive: IRAK-1-4 Inhibitor I 0.027 | ibrutinib 0.052 | [1] 0.044 | ralimetinib 0.004 | [2] -0.031 | [3] 0.06 | [4] 0.026 | pinometostat -0.012 | [5] 0.084 | [6] -0.001 | [7] -0.086 | [8] 0.01 | [9] 0.185 | [10] -0.029 | Nexturastat A -0.066 | vemurafenib -0.048 | [11] -0.007 | [12] -0.077 | givinostat -0.044 | barasertib -0.002

MAGT1 (UniProt Q9H0U3)
inactive: IRAK-1-4 Inhibitor I -0.031 | ibrutinib -0.014 | [1] 0.031 | ralimetinib 0.006 | [2] 0.026 | [3] -0.028 | [4] -0.002 | pinometostat 0.057 | [5] 0.01 | [6] -0.008 | [7] 0.009 | [8] 0.008 | [9] 0.027 | [10] -0.07 | Nexturastat A 0.029 | vemurafenib -0.064 | [11] -0.004 | [12] -0.024 | givinostat -0.019 | barasertib 0.005

LSM6 (UniProt P62312)
inactive: IRAK-1-4 Inhibitor I 0.049 | ibrutinib 0.037 | [1] 0.058 | ralimetinib 0.017 | [2] 0.02 | [3] 0.099 | [4] -0.016 | pinometostat -0.068 | [5] 0 | [6] 0.019 | [7] -0.033 | [8] -0.013 | [9] 0.009 | [10] -0.001 | Nexturastat A -0.07 | vemurafenib 0.046 | [11] 0.009 | [12] -0.055 | givinostat 0.005 | barasertib -0.008

LSM7 (UniProt Q9UK45)
inactive: IRAK-1-4 Inhibitor I 0.068 | ibrutinib -0.118 | [1] 0.008 | ralimetinib -0.113 | [2] -0.024 | [3] 0.039 | [4] 0.001 | pinometostat -0.045 | [5] 0.038 | [6] 0.032 | [7] -0.016 | [8] 0.006 | [9] 0.078 | [10] -0.008 | Nexturastat A -0.073 | vemurafenib -0.026 | [11] -0.025 | [12] -0.049 | givinostat 0.022 | barasertib 0.004

LZTFL1 (UniProt Q9NQ48)
inactive: IRAK-1-4 Inhibitor I 0.031 | ibrutinib -0.015 | [1] -0.001 | ralimetinib -0.027 | [2] -0.046 | [3] 0.056 | [4] -0.01 | pinometostat -0.013 | [5] 0 | [6] 0.03 | [7] -0.004 | [8] -0.002 | [9] 0.024 | [10] 0.024 | Nexturastat A -0.022 | vemurafenib 0.017 | [11] 0.003 | [12] -0.049 | givinostat -0.058 | barasertib 0.014

LSM1 (UniProt O15116)
inactive: IRAK-1-4 Inhibitor I 0.018 | ibrutinib 0.025 | [1] -0.049 | ralimetinib -0.165 | [2] 0.024 | [3] 0.053 | [4] -0.067 | pinometostat -0.069 | [5] -0.012 | [6] 0.146 | [7] -0.013 | [8] -0.063 | [9] 0.018 | [10] 0.07 | Nexturastat A -0.002 | vemurafenib 0.05 | [11] -0.041 | [12] -0.06 | givinostat 0.006 | barasertib 0.031

LRRFIP2 (UniProt Q9Y608)
inactive: IRAK-1-4 Inhibitor I 0.008 | ibrutinib 0.005 | [1] 0.014 | ralimetinib 0.001 | [2] -0.022 | [3] 0.041 | [4] 0.018 | pinometostat -0.05 | [5] 0.027 | [6] -0.025 | [7] -0.04 | [8] -0.035 | [9] -0.036 | [10] 0.015 | Nexturastat A -0.004 | vemurafenib -0.031 | [11] -0.027 | [12] 0.016 | givinostat -0.011 | barasertib 0.008

LYPLA1 (UniProt O75608)
inactive: IRAK-1-4 Inhibitor I 0.022 | ibrutinib -0.005 | [1] -0.009 | ralimetinib -0.134 | [2] -0.045 | [3] 0.006 | [4] -0.105 | pinometostat -0.065 | [5] -0.005 | [6] 0.125 | [7] -0.079 | [8] -0.07 | [9] 0.032 | [10] 0.049 | Nexturastat A -0.023 | vemurafenib -0.085 | [11] 0.014 | [12] -0.025 | givinostat -0.08 | barasertib 0.036
